Data published in publication PMC8346126.
No constants are given. Whether binding was seen depends on the method and setting.

How the values were obtained:
Experiment in all cases: SEC; Superdex 200 Increase GL 10/300 or Superdex 75 16/60 HR column, room temperature; columns calibrated with Bio-Rad SEC standards; molecular weights estimated from elution; both purified
[1] = target: Recombinant truncated human wild-type tyrosinase (residues 19-469) (human) (UniProt P14679)
[2] = target: Recombinant truncated human tyrosinase OCA1B mutant variant R422Q (residues 19-469) (human) (UniProt P14679)
[3] = target: Recombinant truncated human tyrosinase OCA1B mutant variant P406L (residues 19-469) (human) (UniProt P14679)

B1: Recombinant truncated human wild-type tyrosinase (residues 19-469) (enzyme, UniProt P14679 19-469)
chain: HFPRACVSSKNLMEKECCPPWSGDRSPCGQLSGRGSCQNILLSNAPLGPQFPFTGVDDRESWPSVFYNRTCQCSGNFMGFNCGNCKFGFWGPNCTERRLLVRRNIFDLSAPEKDKFFAYLTLAKHTISSDYVIPIGTYGQMKNGSTPMFNDINIYDLFVWMHYYVSMDALLGGSEIWRDIDFAHEAPAFLPWHRLFLLRWEQEIQKLTGDENFTIPYWDWRDAEKCDICTDEYMGGQHPTNPNLLSPASFFSSWQIVCSRLEEYNSHQSLCNGTPEGPLRRNPGNHDKSRTPRLPSSADVEFCLSLTQYESGSMDKAANFSFRNTLEGFASPLTGIADASQSSMHNALHIYMNGTMSQVQGSANDPIFLLHHAFVDSIFEQWLRRHRPLQEVYPEANAPIGHNRESYMVPFIPLYRNGDFFISSKDLGYDYSYLQDSDPDSFQDYIKSYLE
B1 was tested, and the binding [1] was “no binding”.

B2: Recombinant truncated human tyrosinase OCA1B mutant variant R422Q (residues 19-469) (enzyme, UniProt P14679 19-469)
chain: HFPRACVSSKNLMEKECCPPWSGDRSPCGQLSGRGSCQNILLSNAPLGPQFPFTGVDDRESWPSVFYNRTCQCSGNFMGFNCGNCKFGFWGPNCTERRLLVRRNIFDLSAPEKDKFFAYLTLAKHTISSDYVIPIGTYGQMKNGSTPMFNDINIYDLFVWMHYYVSMDALLGGSEIWRDIDFAHEAPAFLPWHRLFLLRWEQEIQKLTGDENFTIPYWDWRDAEKCDICTDEYMGGQHPTNPNLLSPASFFSSWQIVCSRLEEYNSHQSLCNGTPEGPLRRNPGNHDKSRTPRLPSSADVEFCLSLTQYESGSMDKAANFSFRNTLEGFASPLTGIADASQSSMHNALHIYMNGTMSQVQGSANDPIFLLHHAFVDSIFEQWLRRHRPLQEVYPEANAPIGHNQESYMVPFIPLYRNGDFFISSKDLGYDYSYLQDSDPDSFQDYIKSYLE
In the case of B2, the binding [2] is reported as “no binding”.

B3: Recombinant truncated human tyrosinase OCA1B mutant variant P406L (residues 19-469) (enzyme, UniProt P14679 19-469)
chain: HFPRACVSSKNLMEKECCPPWSGDRSPCGQLSGRGSCQNILLSNAPLGPQFPFTGVDDRESWPSVFYNRTCQCSGNFMGFNCGNCKFGFWGPNCTERRLLVRRNIFDLSAPEKDKFFAYLTLAKHTISSDYVIPIGTYGQMKNGSTPMFNDINIYDLFVWMHYYVSMDALLGGSEIWRDIDFAHEAPAFLPWHRLFLLRWEQEIQKLTGDENFTIPYWDWRDAEKCDICTDEYMGGQHPTNPNLLSPASFFSSWQIVCSRLEEYNSHQSLCNGTPEGPLRRNPGNHDKSRTPRLPSSADVEFCLSLTQYESGSMDKAANFSFRNTLEGFASPLTGIADASQSSMHNALHIYMNGTMSQVQGSANDPIFLLHHAFVDSIFEQWLRRHRLLQEVYPEANAPIGHNRESYMVPFIPLYRNGDFFISSKDLGYDYSYLQDSDPDSFQDYIKSYLE
With B3 the binding [3] was “no binding”.
